# Measurements from paper PMC9768165.
# Protein sequences, listed by entry. Tags and fused reporters are not part of them. Lines headed by an entry give the natural chain unless they say otherwise; changes in a name come on top. Chains listed by the source or under a name are the forms on record and can include a tag or linker.
# UniProt P35222: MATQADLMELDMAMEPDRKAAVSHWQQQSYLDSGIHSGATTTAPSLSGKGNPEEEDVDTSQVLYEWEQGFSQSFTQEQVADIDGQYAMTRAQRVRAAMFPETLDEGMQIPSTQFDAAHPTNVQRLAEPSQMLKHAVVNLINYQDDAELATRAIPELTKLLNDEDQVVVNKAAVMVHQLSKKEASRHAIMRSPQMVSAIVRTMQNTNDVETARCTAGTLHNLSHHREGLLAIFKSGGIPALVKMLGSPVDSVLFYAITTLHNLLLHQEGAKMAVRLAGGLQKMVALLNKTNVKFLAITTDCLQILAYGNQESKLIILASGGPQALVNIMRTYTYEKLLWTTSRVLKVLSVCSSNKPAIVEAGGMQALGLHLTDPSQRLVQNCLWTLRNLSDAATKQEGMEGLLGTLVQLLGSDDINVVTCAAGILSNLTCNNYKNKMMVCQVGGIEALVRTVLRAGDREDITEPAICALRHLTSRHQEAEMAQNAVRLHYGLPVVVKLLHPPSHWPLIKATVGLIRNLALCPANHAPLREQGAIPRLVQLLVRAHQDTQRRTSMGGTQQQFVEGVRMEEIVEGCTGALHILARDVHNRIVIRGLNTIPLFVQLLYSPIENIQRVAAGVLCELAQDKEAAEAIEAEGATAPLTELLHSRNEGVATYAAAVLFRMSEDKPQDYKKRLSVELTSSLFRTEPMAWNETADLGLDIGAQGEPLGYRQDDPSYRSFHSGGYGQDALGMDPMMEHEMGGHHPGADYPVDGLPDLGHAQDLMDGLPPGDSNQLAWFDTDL
# β-catenin-4A mutant (S33/S37/T41/S45) (P35222, form named): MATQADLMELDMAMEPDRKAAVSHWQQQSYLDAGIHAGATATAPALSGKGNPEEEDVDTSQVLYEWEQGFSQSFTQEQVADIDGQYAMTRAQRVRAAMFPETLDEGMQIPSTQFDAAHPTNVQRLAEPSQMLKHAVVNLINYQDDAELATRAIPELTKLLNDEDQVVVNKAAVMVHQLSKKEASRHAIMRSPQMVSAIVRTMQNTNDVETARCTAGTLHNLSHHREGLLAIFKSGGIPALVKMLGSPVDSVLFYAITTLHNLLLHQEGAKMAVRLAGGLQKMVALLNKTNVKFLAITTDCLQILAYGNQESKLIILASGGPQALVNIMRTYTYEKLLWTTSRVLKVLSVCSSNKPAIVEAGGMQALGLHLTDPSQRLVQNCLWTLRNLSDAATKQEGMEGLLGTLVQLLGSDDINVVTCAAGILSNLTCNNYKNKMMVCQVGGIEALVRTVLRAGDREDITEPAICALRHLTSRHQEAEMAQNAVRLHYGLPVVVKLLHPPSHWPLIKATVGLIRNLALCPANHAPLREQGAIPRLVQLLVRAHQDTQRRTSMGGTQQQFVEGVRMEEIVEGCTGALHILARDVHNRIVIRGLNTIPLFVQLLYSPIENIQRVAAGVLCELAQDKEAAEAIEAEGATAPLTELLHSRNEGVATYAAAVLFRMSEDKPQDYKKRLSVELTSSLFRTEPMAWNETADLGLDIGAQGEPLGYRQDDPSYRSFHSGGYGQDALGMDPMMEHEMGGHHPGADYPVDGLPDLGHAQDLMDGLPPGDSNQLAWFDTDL
# UniProt O43524: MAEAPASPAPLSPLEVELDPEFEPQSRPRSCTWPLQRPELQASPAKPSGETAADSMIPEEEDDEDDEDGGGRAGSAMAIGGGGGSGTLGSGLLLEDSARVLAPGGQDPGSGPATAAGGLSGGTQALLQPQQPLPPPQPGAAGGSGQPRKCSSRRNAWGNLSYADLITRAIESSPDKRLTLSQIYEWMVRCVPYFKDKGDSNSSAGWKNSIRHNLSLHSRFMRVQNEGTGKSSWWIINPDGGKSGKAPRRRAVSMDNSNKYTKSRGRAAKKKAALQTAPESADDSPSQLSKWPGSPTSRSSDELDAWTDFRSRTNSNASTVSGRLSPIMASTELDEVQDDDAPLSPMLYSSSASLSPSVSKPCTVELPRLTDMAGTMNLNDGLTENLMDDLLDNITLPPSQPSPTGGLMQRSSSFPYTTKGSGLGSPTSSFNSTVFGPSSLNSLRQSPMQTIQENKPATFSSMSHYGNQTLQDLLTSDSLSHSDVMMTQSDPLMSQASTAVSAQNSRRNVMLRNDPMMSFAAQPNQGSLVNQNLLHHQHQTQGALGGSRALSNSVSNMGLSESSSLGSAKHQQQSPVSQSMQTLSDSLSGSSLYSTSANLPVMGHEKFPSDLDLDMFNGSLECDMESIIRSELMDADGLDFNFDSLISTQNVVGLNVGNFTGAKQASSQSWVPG
# Results are given in words; binding and its absence hold for the method and conditions named. Binding seen in cells or lysates may run through a third protein. Some results given as binding are weak or reduced against the parent protein; the word gives no strength.
# Key:
# [1] = target: β-catenin-4A mutant (S33/S37/T41/S45) (UniProt P35222); test: co-IP; nuclear fraction of HK-2 cells transfected with β-catenin-4A mutant plasmid, untreated (without LPS); immunoprecipitated with anti-β-catenin antibody at 4 °C overnight, magnetic protein A/G beads; immunoblot for FOXO3
# [2] = target: β-catenin-4A mutant (S33/S37/T41/S45) (UniProt P35222); test: co-IP; nuclear fraction of HK-2 cells transfected with β-catenin-4A mutant plasmid, treated with LPS (100 ng/µl) for 30 min; immunoprecipitated with anti-β-catenin antibody at 4 °C overnight, magnetic protein A/G beads; immunoblot for FOXO3
substance,measurement,setting,value
Forkhead box O3 (FOXO3) (from UniProt O43524 1-673),binding,[1],no binding (condition: untreated cells (without LPS))
same,binding,[2],binds
